Experimental data published in PubChem BioAssay AID504648 (National Center for Advancing Translational Sciences (NCATS), 2011).
In all, about 390,000 compounds went through this assay and about 610 (0.16%) were called active. Inconclusive means that the source gave no clear call. Such entries were picked first, then a sample of the others. Calls follow the shape of the dose curve; as a rule, active = well fitted inhibition curve with a large enough effect; inconclusive = small, poorly fitted or top-dose-only effect, or effect the other way, or another doubt; inactive = no such curve, though single readings can be large or run the other way. A potency beside an inconclusive call is a rough fit, not a confirmed value.
% is scaled to controls: 0 for no effect and ±100 for the full control effect; potency is read from the fitted curve at half-maximal effect.

Test: Nrf2 qHTS screen for inhibitors: counterscreen for cytotoxicity
Conditions: A549 ARE-Fluc cells, CellTiter-Fluor viability, 18-24 h; activity change, negative = cytotoxicity: at 46 µM (top of the series)
Method in brief: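 A549 ARE_Fluc cells in 5% FBS OPTI-MEM were exposed to compounds in concentration-response for 18-24 h at 37 deg C. Viability was read by CellTiter-Fluor fluorescence (Ex 405/Em 525) after 30 min, before the luciferase read.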
With N#Cc1ccc(CSc2nnc(NC(=O)c3ccc4ncsc4c3)s2)cc1 the Potency was inconclusive: 29.1 µM [falling, single point].
For Cc1ccc(NC(=O)Cn2nnc(-c3ccccc3NC(=O)c3cccs3)n2)cc1, the Potency was inconclusive: 1.84 µM [falling, full curve].
For CC(CCc1ccccc1)NC(=O)COC(=O)c1ccccc1O (configuration not stated), the “activity change, negative = cytotoxicity” value was inactive: -3.42%.
In the case of c1ccc(Cc2nnc(N3CCCCC3)c3ccccc23)cc1, the Potency is reported as inconclusive: 29.1 µM [falling, single point].
With CCCCNC(=O)COC(=O)c1c2c(nc3ccccc13)/C(=C\c1cccs1)CC2 the Potency was inconclusive: 20.6 µM [activator, single point].
With CCCN(CCC)C(=O)CC(c1ccccc1)c1cc(Br)ccc1O (configuration not stated) the Potency was inconclusive: 29.1 µM [falling, single point].
With CCOC(=O)CN(Cc1ccccc1)C(C(=O)NC1CCCCC1)c1ccccc1 (configuration not stated) the Potency was active: 11.6 µM.
In the case of CCOC(=O)C1CCCN(c2cc(=O)n(-c3ccccc3Cl)c(=O)[nH]2)C1 (configuration not stated), the Potency is reported as inconclusive: 29.1 µM [falling, single point].
In the case of O=C(NC(=S)Nc1ccc(N2CCCC2)cc1)c1ccccc1[N+](=O)[O-], the Potency is reported as inconclusive: 0.13 µM [activator, full curve, poor fit].
In the case of COc1ccc(-c2nn(C)c3sc(C(=O)Nc4cc(OC)c(OC)c(OC)c4)cc23)cc1OC, the Potency is reported as inconclusive: 29.1 µM [falling, single point].
In the case of CCCCC(CC)CNC(=O)c1ccc(Cn2c(=O)[nH]c3cc(OC)c(OC)cc3c2=O)cc1 (configuration not stated), the Potency is reported as inconclusive: 32.6 µM [falling, partial curve, poor fit].
For Cc1nc(N2CCCCC2)sc1C(=O)c1ccc(SCCO)c([N+](=O)[O-])c1, the Potency was inconclusive: 20.6 µM [falling, single point].
For Cc1c(C(=O)Nc2ccc3c(c2)OCCO3)sc2ncnc(N3CCCCC3C)c12 (configuration not stated), the Potency was inconclusive: 32.6 µM [falling, partial curve, poor fit].
With N#CCC(=O)NNC(=S)Nc1ccccc1C(F)(F)F the Potency was inconclusive: 32.6 µM [falling, partial curve, poor fit].
In the case of CCCCN(CC)c1nc(-c2ccncc2)nc2ccccc12, the “activity change, negative = cytotoxicity” value is reported as inactive: -0.0706%.
With Cc1cc(=O)oc2cc(OC(C)C(=O)N3CCOCC3)ccc12 (configuration not stated) the “activity change, negative = cytotoxicity” value was inactive: -3.92%.
In the case of Cn1cc(S(=O)(=O)N2CCc3ccccc32)cc1C(=O)Nc1ccc(C(F)(F)F)cc1, the Potency is reported as inconclusive: 16.4 µM [falling, partial curve, poor fit].
With Cc1nn(C)cc1CNCc1ccc(OCC(O)CN(C)Cc2ccccc2)cc1 (configuration not stated) the Potency was inconclusive: 8.2 µM [falling, partial curve].
In the case of COc1ccc(N2CCN(C(CNC(=O)c3c(F)cccc3F)c3ccc4c(c3)OCO4)CC2)cc1 (configuration not stated), the “activity change, negative = cytotoxicity” value is reported as inactive: -12.3%.
For Nc1cccc(S(=O)(=O)N2CCN(S(=O)(=O)c3ccc4c(c3)OCCO4)CC2)c1, the “activity change, negative = cytotoxicity” value was inactive: -0.98%.
With Cc1ccc(Cn2c(=O)c3c(ncn3C)n(C)c2=O)cc1 the “activity change, negative = cytotoxicity” value was inactive: 12.9%.
In the case of O=[N+]([O-])c1cc(Cl)c(O)c2ncccc12, the Potency is reported as inconclusive: 18.4 µM [falling, single point].
In the case of COc1ccc(C(=O)NC(=S)NNC(=O)c2cnccn2)cc1, the Potency is reported as inconclusive: 5.8 µM [falling, partial curve, poor fit].
For CC(=O)COc1nc2c(c(-c3ccco3)c1C#N)CCc1ccccc1-2, the Potency was inconclusive: 29.1 µM [falling, single point].
With Fc1ccccc1CSc1ncnc2sc3c(c12)CCCC3 the Potency was inconclusive: 20.6 µM [activator, partial curve, poor fit].
With Cc1ccc(Nc2nc(OC(C(F)(F)F)C(F)(F)F)nc(N3CCOCC3)n2)cc1 the Potency was inconclusive: 29.1 µM [activator, partial curve, poor fit].
For CN1CCN(C(=O)OCCOCCOC(=O)N2CCN(C)CC2)CC1, the Potency was inconclusive: 6.51 µM [falling, single point].
For O=C(O)c1csc(-n2nc(-c3ccccc3)cc2C(F)(F)F)n1, the “activity change, negative = cytotoxicity” value was inactive: 4.33%.
For O=C(O)COc1ccc2c(c1)O/C(=C\c1ccco1)C2=O, the Potency was inconclusive: 16.4 µM [falling, partial curve, poor fit].
For CC(C)c1ccc(-c2cc(C(=O)N3N=C(C(F)F)CC3(O)C(F)F)c3ccccc3n2)cc1 (configuration not stated), the Potency was inconclusive: 35.5 µM [falling, partial curve, poor fit].
With Cc1ccc(C(C(=O)Nc2ccc3c(c2)OCO3)N(C)C(=O)Cc2c[nH]c3ccccc23)cc1 (configuration not stated) the Potency was inconclusive: 29.1 µM [falling, single point].
With CN(CC(=O)Nc1ccc(Cl)cc1)C(=O)c1ccc(S(=O)(=O)Nc2ccccc2)cc1 the Potency was inconclusive: 18.4 µM [falling, single point].
With CC1C(=O)C(C)C(c2ccc(Br)cc2)NC1c1ccc(Br)cc1 (configuration not stated) the Potency was inconclusive: 18.4 µM [falling, partial curve, poor fit].
In the case of CCOc1ccccc1NC(=O)N1CCN(Cc2nc3ccc(C)cc3o2)CC1, the “activity change, negative = cytotoxicity” value is reported as inactive: 3.41%.
In the case of COc1cccc(OCC(=O)Nc2cc(Cl)ccc2Oc2ccccc2)c1, the “activity change, negative = cytotoxicity” value is reported as inactive: 12.4%.
In the case of Cc1ccc(C(=O)NNC(=O)C2CCN(Cc3ccccc3)CC2)cc1, the “activity change, negative = cytotoxicity” value is reported as inactive: -2.52%.
In the case of Cn1nnnc1Sc1ncnc2scc(-c3ccc4c(=O)ccoc4c3)c12, the Potency is reported as inconclusive: 25.9 µM [falling, single point].
With Cc1nc(Nc2nc(CSc3nc4ccccc4[nH]3)cc(=O)[nH]2)nc2ccccc12 the Potency was inconclusive: 29.1 µM [falling, single point].
With O=C(CSc1ncccn1)NCc1ccc(Cl)cc1 the “activity change, negative = cytotoxicity” value was inactive: -0.377%.
With CC(C)CCNC(=O)Nc1ccc2c(c1)N(C)C(=O)c1ccccc1S2 the “activity change, negative = cytotoxicity” value was inactive: -0.145%.
For CCCCn1c(CN2CCN(c3ccccc3)CC2)nc2c1c(=O)n(C)c(=O)n2C, the Potency was inconclusive: 3.26 µM [falling, partial curve, poor fit].
In the case of CCN(CC)CCN(C(=O)c1ccc([N+](=O)[O-])cc1)c1nc2ccc(OC)cc2s1, the Potency is reported as inconclusive: 23.1 µM [activator, partial curve, poor fit].
